We go through 61 compounds from PubChem BioAssay AID2685 (National Center for Advancing Translational Sciences (NCATS), 2010).

The nature of the test: qHTS Assay for Lipid Storage Modulators in Drosophila S3 Cells.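 On cell number change: cells counted by Cell Tracker Red CMTPX staining in the red channel.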 Particulars: BODIPY lipid droplet fluorescence, 18-24 h; for cell number change: measured here: cell count max response, cells fed with added oleic acid. In short, it runs like this:
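Drosophila S3 cells loaded with oleic acid (400 uM, as added) and compounds at several concentrations; lipid droplets imaged by 488-nm laser-scanning cytometry, 500–530 nm intensity and object ratio to cell channel. Percent activity normalized to 20 uM Triacsin C.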
(qHTS replaces the single test concentration by a dilution series.)

The mark [1] stands for this setting: measured here: cell number channel AC50, cells fed with added oleic acid.
[2] abbreviates: measured here: lipid fluorescence (Fed channel) AC50, cells fed with added oleic acid.

This is one part of the list. Shown are side measurements of this screen, not its main read-out; they come without a call. The list favours compounds with an active or inconclusive main result. Words in brackets tell the shape of the fitted curve; partial curves, single points and poor fits give uncertain potencies.

`O=C(CCN1C(=O)/C(=C/c2cccs2)SC1=S)Nc1ccc(O)cc1`: the cell number change came to 182%. For the same compound, the AC50 under setting [1] is 25.9 µM [rising, partial curve]. In addition, the AC50 under setting [2] is 0.116 µM [rising, single point]. With `COc1cc(OC)cc(C(=O)NCCSc2c[nH]c3ccccc23)c1`, the cell number change was -12.7%.

For `CSc1ccc(/C=N/NC(=O)COc2ccc(Br)cc2Cl)cc1`, the cell number change is -56.3%. Moreover, under setting [1], the AC50 was 14.6 µM [falling, partial curve, poor fit]. Also, under setting [2], the AC50 is 1.84 µM [falling, partial curve, poor fit].

On to `O=C1CCC(=O)N1c1ccccc1-c1ccccc1`, for which the cell number change was -10.5%. The AC50 under setting [2] is 23.1 µM [falling, single point]. On to `CCN(CC)S(=O)(=O)c1ccc(N2CCN(CCOc3ccc(OC)cc3)CC2)nc1`, for which the cell number change is 33.9%. With `COc1cc2c(cc1NC(=O)CSc1nnc(Cc3cccs3)n1C)oc1ccccc12`, the cell number change came to 51.5%. For the same compound, the AC50 under setting [1] was 9.2 µM [rising, partial curve]. Also, under setting [2], the AC50 was 16.4 µM [rising, partial curve, poor fit]. `COC(=O)/N=C(/Cc1ccc(OC)cc1)c1ccc(OC)cc1`: the cell number change is 12.9%. For the same compound, the AC50 under setting [2] was 3.26 µM [rising, single point]. Turning to `O=C(Cn1cnc2c(oc3ccccc32)c1=O)c1ccccc1`, the cell number change is 37.2%. For the same compound, under setting [1], the AC50 was 14.6 µM [rising, partial curve].

`O=C(COC(=O)c1cnccn1)c1ccc(-c2ccccc2)cc1`: the cell number change stood at 2.5%.

As for `Cn1c(N)c(C(=O)COC(=O)Cc2ccc(F)cc2)c(=O)n(C)c1=O`, the cell number change was determined as 97%. `Cc1ccc(Cn2c(CN3CC(C)OC(C)C3)nc3c2c(=O)[nH]c(=O)n3C)cc1` (stereo not given): the cell number change stood at 20.9%. Besides, the AC50 under setting [1] was 0.13 µM [rising, full curve, poor fit]. In addition, the AC50 under setting [2] was 0.146 µM [rising, full curve, poor fit]. Take `CCOc1cc(-c2c(C#N)c(N)nc3c2CCCC3C)ccc1O` (stereo not given): the cell number change is -24.1%. In addition, the AC50 under setting [2] was 1.84 µM [rising, full curve, poor fit]. With `O=C(c1cc2ccccc2c(=O)o1)N1CCc2ccccc2C1`, the cell number change worked out at 19%. For the same compound, the concentration at half-maximal activity (AC50) under setting [2] is 0.0731 µM [rising, full curve, poor fit]. Turning to `CC(C)NCCOCCOc1ccccc1F`, the cell number change is -38%. The AC50 under setting [1] was 10.3 µM [falling, partial curve, poor fit]. The AC50 under setting [2] was 18.4 µM [falling, partial curve].

For the compound `C/C(CC(=O)Nc1ccc(N(C)C)cc1)=N\NC(=O)c1ccccn1`, the cell number change amounted to 0.774%. Also, the AC50 under setting [2] is 5.8 µM [falling, partial curve]. In the case of `CCOC(=O)c1c(NC(=O)CSc2nnnn2C)sc(CC)c1C`, the cell number change was 17.1%. In addition, the AC50 under setting [1] was 1.03 µM [rising, full curve, poor fit]. Take `O=C(Cc1cccs1)N(c1ccc(Br)cc1)C1C=CS(=O)(=O)C1` (stereo not given): the cell number change was -11.3%. Under setting [2], the AC50 is 0.517 µM [falling, full curve, poor fit]. Regarding `CN(C)c1ccc(/C=N\NC(=O)c2csnn2)cc1`, the cell number change worked out at 13.8%. Regarding `Cc1ccc(C(=O)Nc2ccc(S(=O)(=O)Nc3ncccn3)cc2)cc1[N+](=O)[O-]`, the cell number change came out at 11.1%. As to `O=C(Nc1ccccc1N1CCCCC1)c1ccc(F)cc1`, the cell number change is 22.3%. Under setting [1], the AC50 is 2.91 µM [rising, single point]. For the compound `O=C(NCCCN1CCCC1)c1ccc(CS(=O)(=O)c2ccc(Br)cc2)o1`, the cell number change turned out to be 2.76%. As to `COC(=O)CSc1nc2c(c(-c3ccc(C)o3)c1C#N)CCCC2`, the cell number change turned out to be 31.6%. The AC50 under setting [1] was 1.84 µM [rising, full curve]. Regarding `O=C(CCC(=O)OCC(=O)c1ccc([N+](=O)[O-])cc1)NC1CCCCC1`, the cell number change was -45.3%. Moreover, under setting [1], the AC50 is 0.092 µM [falling, full curve]. As to `O=C(Nc1ccc2nn(-c3ccccc3)nc2c1)c1ccco1`, the cell number change was -54.7%. Further, the AC50 under setting [1] was 16.4 µM [falling, partial curve]. Also, under setting [2], the AC50 is 18.4 µM [falling, partial curve]. In the case of `CC(C(=O)Nc1cccnc1)c1ccc([N+](=O)[O-])cc1` (stereo not given), the AC50 under setting [2] was 29.1 µM [rising, single point]. As for `COC(=O)C1=C(C)NC(=S)NC1c1ccc(OCC(=O)N2CC(C)OC(C)C2)c(OC)c1` (stereo not given), the cell number change is -2.89%.

With `Cc1ccc(S(=O)(=O)C(C#N)c2nc3ccccc3nc2OCCO)cc1` (stereo not given), the cell number change is -15.6%. The AC50 under setting [2] is 18.4 µM [falling, single point]. As to `Cn1nc(C(=O)NC(C)(C)C)c2ccccc21`, the cell number change came out at 9.09%. Under setting [2], the AC50 is 20.6 µM [rising, partial curve].

As to `Cc1cc(C)c(C#N)c(OCC(=O)c2ccc(Br)cc2)n1`, the cell number change worked out at 25.3%. Further, the AC50 under setting [2] was 29.1 µM [rising, partial curve]. Consider `O=C(N1CCN(c2ccccn2)CC1)C(Cl)(Cl)Cl`, for which the cell number change is 3.5%. For the same compound, the AC50 under setting [2] is 18.4 µM [falling, partial curve, poor fit].

Regarding `CC1CCCCC1NC(=O)C1CCN(C(=O)NC2CCCCC2)CC1` (stereo not given), the cell number change was -76.9%. For the same compound, the AC50 under setting [1] was 29.1 µM [falling, single point]. For the same compound, the concentration at half-maximal activity (AC50) under setting [2] is 29.1 µM [falling, single point]. With `O=C(O)c1cccc(Cn2c(Cl)c(/C=N/NC(=O)c3ccc(O)cc3)sc2=O)c1`, the cell number change came to 41.7%. The AC50 under setting [1] was 18.4 µM [rising, single point]. Take `O=C1c2ccc(Br)cc2C(=O)N1c1ccc(Cc2ccncc2)cc1`: the cell number change was -42.3%. Also, under setting [1], the AC50 was 29.1 µM [falling, single point]. Further, the AC50 under setting [2] was 32.6 µM [falling, partial curve, poor fit].

Take `Cc1ccc(S(=O)(=O)N2CCC(=O)N(CCOCc3cccc(C(F)(F)F)c3)CC2)cc1`: the cell number change is -9.42%. The AC50 under setting [2] is 32.6 µM [rising, single point]. With `CCN1CCCC1CNCc1cc(OC)c(OC)c(OC)c1` (stereo not given), the cell number change was -49.2%. The AC50 under setting [2] is 0.58 µM [falling, single point]. For the compound `CC1CCCC(C)N1C(=O)c1cccc2c1-c1ccccc1/C2=N/O` (stereo not given), the cell number change is -24%. Moreover, under setting [2], the AC50 is 29.1 µM [falling, single point]. Consider `Cc1cc(=O)oc2cc(OCC(=O)N/N=C/c3ccccc3[N+](=O)[O-])ccc12`, for which the cell number change was -51.9%. Further, the AC50 under setting [1] was 29.1 µM [falling, single point]. Besides, the concentration at half-maximal activity (AC50) under setting [2] is 29.1 µM [falling, single point]. `Cc1nc2ccccc2c(=O)[nH]1`: the cell number change was -12.9%. Further, the concentration at half-maximal activity (AC50) under setting [1] was 0.461 µM [falling, full curve]. In addition, under setting [2], the AC50 is 0.651 µM [falling, partial curve, poor fit]. With `CCOc1cc(/C=C2/C(=N)N3N=C(C)SC3=NC2=O)ccc1OS(=O)(=O)c1ccc(C)cc1`, the cell number change was 2.52%. Also, the AC50 under setting [2] was 0.291 µM [rising, single point]. `CC(c1ccco1)N(C(=O)c1ccc(C(F)(F)F)cc1)c1ccccn1` (stereo not given): the cell number change was -35.4%. Regarding `CN(Cc1ccccc1)C1=CC(=[N+]2CCCCC2)CC(C)(C)C1`, the cell number change was -53.8%. Also, the AC50 under setting [1] was 7.31 µM [falling, partial curve]. For the same compound, the AC50 under setting [2] is 6.51 µM [falling, partial curve]. On to `COc1ccc(-c2cc(C(=O)N3CCN(c4ccccc4)CC3)c3ccccc3n2)cc1OC`, for which the cell number change came to 19.4%. For the same compound, the AC50 under setting [1] was 0.092 µM [rising, full curve, poor fit]. Further, the AC50 under setting [2] is 3.26 µM [rising, partial curve]. On to `CCOC(=O)c1c(C)[nH]c(C(=O)OCC(=O)NCc2ccc(OC)c(OC)c2)c1C`, for which the cell number change is -3.26%. Further, the AC50 under setting [2] was 29.1 µM [falling, single point]. For the compound `COc1cc(OC)c(C2C(C(=O)Nc3ccc(C)cc3C)=C(C)Nc3ncnn32)cc1OC` (stereo not given), the cell number change was -12.9%. Also, the AC50 under setting [2] was 0.58 µM [falling, full curve, poor fit]. For `COCCn1c(SC(C)C(=O)NCC2CCCO2)nc2sc3c(c2c1=O)CCC3` (stereo not given), under setting [2], the AC50 is 3.26 µM [rising, single point]. As for `CC(C)(C)C(=O)NC(=S)NNC(=O)c1ccc(-c2ccccc2)cc1`, the cell number change was -31.4%. Further, under setting [1], the AC50 was 20 µM [falling, single point]. With `O=C(NC1CCCC1)C1CC(=O)N(c2ccc(F)c(Cl)c2)C1` (stereo not given), the cell number change was -10.9%. Under setting [2], the AC50 was 0.517 µM [falling, single point]. As for `COc1ccccc1C1=NNC(=NCc2ccccc2)SC1`, the cell number change is -42.2%. For the same compound, the AC50 under setting [1] was 0.00461 µM [falling, full curve].

`CCOC(=O)C1=C(C)NC(=O)NC1c1cc(C)sc1C` (stereo not given): the cell number change was found to be 118%. Further, the AC50 under setting [1] was 18.4 µM [rising, single point]. The AC50 under setting [2] was 29.1 µM [rising, single point]. With `CCOc1ccc(S(=O)(=O)N2CCC(C(=O)NCC3CCCO3)CC2)cc1C` (stereo not given), the cell number change is -4.62%.

With `Cc1cc(C)c(C#N)c(SCc2ccc(C(=O)O)cc2)n1`, the cell number change was -17.5%. Under setting [2], the AC50 was 6.51 µM [rising, single point]. Turning to `CCCCC[C@H]1CN(Cc2ccccc2)C(=O)[C@@H]1CC(=O)NCc1ccccc1`, the cell number change was -25.7%. Still for that read-out and setting: the value for `C1=C(CCNC2=NCCCCC2)CCCC1` was -42.1%. Consider `COc1ccc(C(=O)NC(C)CCc2ccccc2)cc1[N+](=O)[O-]` (stereo not given), for which the cell number change was found to be 9.97%. Further, the concentration at half-maximal activity (AC50) under setting [2] was 29.1 µM [falling, single point]. `Cc1ccc(O)c(NC(=O)C2CCCN2C(=O)OCc2ccccc2)c1` (stereo not given): the cell number change is 5.67%. The AC50 under setting [2] is 1.03 µM [rising, full curve]. Consider `Cc1c(O)ccc2c(-c3ccccc3)cc(=O)oc12`, for which the cell number change stood at 14%. Further, under setting [2], the AC50 is 5.8 µM [rising, partial curve, poor fit]. For `O=C(NCc1ccco1)c1ccc(S(=O)(=O)N2CCCCCC2)cc1`, the cell number change is -15.4%. In addition, the AC50 under setting [2] is 0.0291 µM [falling, full curve, poor fit]. Take `CCC(C)(C)NC(=O)C(c1ccc(OC)cc1)N(C(=O)CCC(=O)Nc1cc(C)on1)c1ccc(OC)cc1OC` (stereo not given): the cell number change stood at 23.3%. For the same compound, under setting [2], the AC50 is 1.16 µM [falling, single point]. With `Cc1nn2c(N3CCCC3)cc(C(C)C)nc2c1-c1ccccc1`, the cell number change came to 4.16%. The half-maximal activity concentration (AC50) under setting [2] was 0.651 µM [rising, single point]. Consider `O=C(O)Cc1ccc(NS(=O)(=O)c2ccccc2Cl)cc1`, for which the cell number change was determined as 21.5%. Consider `O=[N+]([O-])c1cccc(CN2CCN(S(=O)(=O)Cc3ccccc3)CC2)c1`, for which the cell number change is -18.9%. Under setting [2], the AC50 was 0.58 µM [falling, single point].

By AC50 is commonly meant the concentration at which the activity in the assay is half-maximal. Read a high AC50 as activity only at high concentration.
